PubChem BioAssay AID1224830, NIAID, 2016
This is an unselected part of about 18,000 reagents tested. About 2,900 of all reagents (16%) count as active. 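Calls are made per well; low scores hint the gene aids the LPS response, high scores that it dampens it.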 Repeated entries: four replicate wells of each siRNA pool.

Screen: 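Host factors that control LPS-induced TNF expression in human macrophages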 (primary screen)
Cells: human THP-1 monocytic leukaemia cells, TNF dual-luciferase reporter clone, PMA-differentiated to macrophage-like cells
Reagents: siRNA pool against human genes, 50 nM
Time to read-out: LPS for 4 h, given about 3 days after siRNA transfection
Challenge: bacterial LPS (TLR4 ligand), 10 ng/ml
Read-out: 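Ratio of firefly to renilla light, scaled to the plate median and expressed as a robust z-score per replicate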
Scale: TNF reporter robust z-score: higher = stronger TNF reporter response to LPS
Active means: 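Each well counts as active if its z-score is over 2.8 or under -1.5; controls are left without a call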

Silencing of SHCBP1L resulted in: TNF reporter robust z-score 2.14; inactive. SHCBP1L gave TNF reporter robust z-score 1.87; inactive. After knock-down of SHCBP1L, the record shows TNF reporter robust z-score -0.63; inactive. SHCBP1L scored TNF reporter robust z-score 0.18; inactive. With knock-down of PEAK1, the screen gave TNF reporter robust z-score 1.49; inactive. Against PEAK1, the entry reads TNF reporter robust z-score 0.32; inactive.

Against PEAK1, the entry reads TNF reporter robust z-score 0.49; inactive. With knock-down of PEAK1, the screen gave TNF reporter robust z-score 2.91; active. Against SLC8A1, the values are TNF reporter robust z-score 0.58; inactive. Against SLC8A1, the values are TNF reporter robust z-score 0.74; inactive. Silencing of SLC8A1 gave: TNF reporter robust z-score 0.55; inactive. With knock-down of SLC8A1, the record shows TNF reporter robust z-score 1.12; inactive.

Silencing of C5AR1 gave: TNF reporter robust z-score -0.59; inactive. With knock-down of C5AR1 the results were TNF reporter robust z-score -0.08; inactive. C5AR1 scored TNF reporter robust z-score -0.07; inactive. C5AR1 gave TNF reporter robust z-score -0.14; inactive. Against PEX10, the entry reads TNF reporter robust z-score -1.05; inactive. For PEX10 the deposit lists TNF reporter robust z-score -1.93; active.

Knock-down of PEX10 came out at: TNF reporter robust z-score -0.78; inactive. For PEX10 the deposit lists TNF reporter robust z-score -2.09; active. Against ADD2 the deposit lists TNF reporter robust z-score -0.56; inactive. After knock-down of ADD2, the record shows TNF reporter robust z-score -0.93; inactive. For ADD2, the values are TNF reporter robust z-score -1.1; inactive. Silencing of ADD2 resulted in: TNF reporter robust z-score 0.18; inactive.

Against TBXT the deposit lists TNF reporter robust z-score -1.39; inactive. Against TBXT, the values are TNF reporter robust z-score -0.9; inactive. TBXT scored TNF reporter robust z-score -1.56; active. After knock-down of TBXT, the record shows TNF reporter robust z-score -1.69; active. With knock-down of CPE, the screen gave TNF reporter robust z-score -0.39; inactive. Depletion of CPE gave: TNF reporter robust z-score 0.98; inactive.

With knock-down of CPE the results were TNF reporter robust z-score 1.3; inactive. For CPE the deposit lists TNF reporter robust z-score -0.12; inactive.

Reformatted: 3 of the entries above.
gene	TNF reporter robust z-score	activity call
SLC8A1	0.58	inactive
SLC8A1	0.74	inactive
SLC8A1	0.55	inactive

The list goes on:
Against OR5H15, the values are TNF reporter robust z-score -0.42; inactive. OR5H15 showed TNF reporter robust z-score -0.51; inactive. After knock-down of OR5H15 the results were TNF reporter robust z-score -1.21; inactive. For OR5H15, the values are TNF reporter robust z-score 0.16; inactive. After knock-down of ZNF771, the screen gave TNF reporter robust z-score 0.37; inactive. ZNF771 scored TNF reporter robust z-score -0.68; inactive.

For ZNF771, the values are TNF reporter robust z-score -0.3; inactive. ZNF771 scored TNF reporter robust z-score -0.04; inactive. For BTN3A2 the deposit lists TNF reporter robust z-score 0.87; inactive. Silencing of BTN3A2 came out at: TNF reporter robust z-score 0.45; inactive. For BTN3A2 the deposit lists TNF reporter robust z-score 0.26; inactive. Silencing of BTN3A2 resulted in: TNF reporter robust z-score -0.06; inactive.

After knock-down of RBMX, the record shows TNF reporter robust z-score 3.23; active. RBMX showed TNF reporter robust z-score 5.02; active. With knock-down of RBMX, the screen gave TNF reporter robust z-score 4.99; active. RBMX showed TNF reporter robust z-score 3.41; active.
